The other results are listed elsewhere or left out. These are further read-outs of the screen, such as a control signal, another cell line or another target. No call is given for them. Compounds called inactive in the main read-out are mostly missing here. Potencies come from curve fits of mixed quality, noted in brackets.

The assay in a line: qHTS Assay for Lipid Storage Modulators in Drosophila S3 Cells.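 For cell number change: cells counted by Cell Tracker Red CMTPX staining in the red channel.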 The following applies: BODIPY lipid droplet fluorescence, 18-24 h; for cell number change: measured here: cell count max response, cells fed with added oleic acid. The procedure, abridged:
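Drosophila S3 cells loaded with oleic acid (400 uM, as added) and compounds at several concentrations; lipid droplets imaged by 488-nm laser-scanning cytometry, 500–530 nm intensity and object ratio to cell channel. Percent activity normalized to 20 uM Triacsin C.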
(In general: In qHTS, concentration-response curves come from the screen itself.)

The mark [1] stands for this setting: measured here: cell number channel AC50, cells fed with added oleic acid.
The mark [2] stands for this setting: measured here: lipid fluorescence (Fed channel) AC50, cells fed with added oleic acid.

As usually defined, the AC50 is the concentration giving half of the maximal activity seen. A higher AC50 goes with activity only at high concentration. Turning to `CCCc1[nH]nc2c1C(c1ccc(OC)c(CSC3=NCCS3)c1)C(C#N)=C(N)O2` (configuration not stated), the cell number change was 15.1%. For the same compound, the AC50 under setting [1] is 0.731 µM [rising, single point]. Also, the half-maximal activity concentration (AC50) under setting [2] is 0.082 µM [rising, partial curve, poor fit]. `CCN(CC(=O)NCc1cccs1)C(=O)c1cc(S(=O)(=O)N2CCOCC2)ccc1C`: the cell number change worked out at 23.7%. The AC50 under setting [2] is 6.51 µM [falling, partial curve]. In the case of `O=C(N/N=C/c1ccc(N2CCOCC2)c([N+](=O)[O-])c1)c1ccc(F)cc1`, the cell number change is 52.1%. For the same compound, the AC50 under setting [1] is 6.51 µM [rising, partial curve]. In addition, under setting [2], the AC50 is 16.4 µM [rising, partial curve]. On to `COc1cccc(C(=O)N2CCN(C(=O)C3CC3)CC2)c1`, for which the cell number change was 15.7%. For the same compound, the half-maximal activity concentration (AC50) under setting [2] was 29.1 µM [rising, single point]. As to `Cc1ccc(CNC(=O)CN2C(=O)C3(OCCCO3)c3ccccc32)cc1`, the cell number change worked out at 17.9%. Turning to `Cc1cnc(C(=O)OCC(=O)NC(C)CCc2ccccc2)cn1` (configuration not stated), the cell number change was found to be 56.7%. Further, the half-maximal activity concentration (AC50) under setting [2] was 8.2 µM [rising, partial curve].

Consider `C#CCOCCOCCOCCNc1nc(N2CCN(C(=O)CCCCCCCCCCNC(=O)[C@H](CO)n3cc(CCCSC)nn3)CC2)nc(N2CCN(C(=O)CCCCCCCCCCNC(=O)[C@H](CO)n3cc(CCCSC)nn3)CC2)n1`, for which the cell number change was 9.37%. The same measure, in the same setting: the value for `CCOC(=O)c1sc(NC(=O)CCN2CCCCCC2)c(C(=O)OCC)c1C` was -30.2%. As to `CN1CCN(C(=O)c2ccccc2NC(=O)c2cccs2)CC1`, the cell number change is -12.7%. In addition, the concentration at half-maximal activity (AC50) under setting [2] was 0.0259 µM [falling, full curve, poor fit]. For the compound `CCOC(=O)C1=C(CSc2nc(C)cc(C)c2C#N)OC(N)=C(C#N)C1c1cccs1` (configuration not stated), the cell number change stood at 9.66%. Also, the AC50 under setting [2] was 6.51 µM [falling, partial curve, poor fit]. As to `COC(=O)c1ccc(N=NNc2ccc(C(=O)OC)cc2)cc1`, the cell number change was -12.3%. For the same compound, the half-maximal activity concentration (AC50) under setting [1] is 6.51 µM [rising, single point]. In addition, the AC50 under setting [2] is 6.51 µM [rising, single point]. As to `CC(C)(C)C(=O)N1CCN(c2ccc([N+](=O)[O-])c(NCc3cccnc3)c2)CC1`, the cell number change was -23.4%. Moreover, the half-maximal activity concentration (AC50) under setting [2] is 25.9 µM [falling, single point].

As to `CC1CCN(C(=O)c2ccccc2NC(=O)Nc2ccccc2)CC1`, the cell number change is -18.4%. Take `COC(=O)c1ccc2c(=O)n(CCO)c(=S)[nH]c2c1`: the cell number change is -28.9%. Besides, the AC50 under setting [2] is 20.6 µM [rising, partial curve]. For the compound `Cc1ccc(S(=O)(=O)N2CCC(C(=O)Nc3ccc(S(=O)(=O)N4CCCC4)cc3)CC2)cc1C`, the cell number change is 10.8%. For `Cc1ccsc1/C=N/NC(=O)c1nnn(-c2nonc2N)c1CN(C)c1ccccc1`, the cell number change turned out to be 14.9%. Also, the AC50 under setting [2] was 23.1 µM [falling, single point]. `CC(=O)c1cccc(NC(=O)N2CCCC2C(=O)Nc2cccc(C)c2)c1` (configuration not stated): the cell number change was 1.09%. The AC50 under setting [2] is 1.84 µM [rising, partial curve].

Turning to `CCCOC(=O)C1=C(C)NC2=C(C(=O)CCC2)C1c1ccc(N(C)C)cc1` (configuration not stated), the cell number change amounted to 4.4%. Besides, the AC50 under setting [2] was 3.26 µM [rising, single point]. With `Cc1ccc(C(=O)O/N=C(\N)Cc2ccc([N+](=O)[O-])cc2)c(Cl)c1`, the cell number change amounted to 17.8%. Besides, the AC50 under setting [2] was 0.00731 µM [rising, full curve, poor fit]. Regarding `CCN(CC)CC(=O)Nc1sc(C)c(C)c1C(=O)c1ccc(C)cc1`, under setting [2], the half-maximal activity concentration (AC50) is 2.59 µM [rising, single point]. For the compound `CCOc1ccc(S(=O)(=O)Nc2ccc3c(c2)OCO3)c2cccnc12`, the cell number change was -31.2%. Moreover, the AC50 under setting [1] is 0.259 µM [falling, full curve, poor fit]. The AC50 under setting [2] was 1.3 µM [falling, full curve].

For `CCCCNC(=O)COC(=O)c1ccccc1F`, the cell number change came out at 1.17%. For the same compound, the AC50 under setting [2] is 0.00517 µM [falling, full curve, poor fit]. Regarding `CN(C(=O)CSc1nnnn1C)C1(C#N)CCCCC1`, the cell number change was -49.4%. Under setting [1], the half-maximal activity concentration (AC50) was 16.4 µM [falling, single point]. Further, the concentration at half-maximal activity (AC50) under setting [2] was 0.184 µM [falling, full curve, poor fit]. For the compound `COc1ccccc1N1CCN(Cc2cc(Br)c(O)c3ncccc23)CC1`, the cell number change was -20.2%. Further, the concentration at half-maximal activity (AC50) under setting [2] is 3.66 µM [falling, full curve, poor fit].

In the case of `CC(C)(C)c1cnnn1-c1ccc(NC(=O)c2ccc3c(c2)OCO3)cc1`, the cell number change came out at 118%. Under setting [1], the AC50 is 11.6 µM [rising, partial curve]. In addition, the AC50 under setting [2] is 2.91 µM [rising, partial curve].

Consider `CCN(CC)C(=O)CSc1nc(Cc2ccccc2)nc2ccccc12`, for which the cell number change is -10.8%. Besides, the half-maximal activity concentration (AC50) under setting [2] is 0.58 µM [rising, single point]. On to `Cc1nnc(C)c2c(C)n(-c3ccccc3)c(C)c12`, for which the cell number change was 16.7%. Under setting [1], the AC50 is 0.651 µM [rising, single point]. As for `CSc1ccc(/C=C2/C(=N)N3N=C(CC(=O)N4CCCC4)SC3=NC2=O)cc1`, the cell number change was -7.67%. As for `C=CCn1c(Br)nc2c1c(=O)[nH]c(=O)n2C`, the cell number change is -98.1%. Besides, the half-maximal activity concentration (AC50) under setting [1] is 2.31 µM [falling, partial curve]. Further, under setting [2], the AC50 was 0.651 µM [falling, single point]. In the case of `CCOC(=O)c1ccc(CNC(=O)CSc2nnc(-c3ccncc3)o2)cc1`, the cell number change amounted to 52.8%. The half-maximal activity concentration (AC50) under setting [1] was 18.4 µM [rising, single point]. The half-maximal activity concentration (AC50) under setting [2] was 1.64 µM [rising, partial curve, poor fit]. With `CCOC(=O)c1c(NC(=O)c2nn(CC)cc2Br)sc(C)c1C`, the AC50 is 4.61 µM [rising, partial curve] under setting [1] and 0.651 µM [rising, full curve] under setting [2]. In the case of `COc1ccc(C(=O)OCC(=O)NCCN2C(=O)CSC2=O)cc1`, the cell number change is -4.47%.

Regarding `Cc1ccc(Cl)cc1Nc1nc(-c2sc(NC(=O)c3ccccc3)nc2C)cs1`, the cell number change is -49.2%. For the same compound, under setting [1], the AC50 was 16.4 µM [falling, partial curve]. The half-maximal activity concentration (AC50) under setting [2] was 0.82 µM [falling, full curve, poor fit]. As for `COc1cccc(OCCSc2nc3ccccc3c(=O)[nH]2)c1`, the cell number change turned out to be 69.1%. Besides, the half-maximal activity concentration (AC50) under setting [1] is 29.1 µM [rising, single point]. `Cc1cccc(NC(=O)/C(C#N)=C/c2ccc[nH]2)c1C`: the cell number change is 15.5%. The AC50 under setting [2] is 29.1 µM [rising, single point]. Turning to `Cc1cccc(C(=O)Nc2ccn(C)n2)c1`, the half-maximal activity concentration (AC50) under setting [2] is 13 µM [rising, single point]. Turning to `COC(=O)/C=C1\N/C(=N/c2nc(C)c3cc(OC)ccc3n2)NC1=O`, the cell number change is -4.05%. Turning to `CCOC(=O)[C@H]1[C@H]2COc3cc(OC)ccc3[C@@H]2N2C(=O)c3ccc(C)cc3NC(=O)[C@@]12C`, the cell number change was -47.5%. Moreover, the AC50 under setting [1] is 29.1 µM [falling, single point]. The AC50 under setting [2] is 6.51 µM [falling, single point].

As to `CCOC(=O)C(Cc1ccccc1)NC(=O)CCc1c(C)nc2nc(C)nn2c1C` (configuration not stated), the cell number change is 51.9%. Further, the AC50 under setting [1] was 14.6 µM [rising, partial curve, poor fit].

In the case of `COc1ccc2[nH]c(=O)c(CN(C(C)=O)C3CCCCC3)cc2c1`, the cell number change amounted to 39.6%. Under setting [1], the concentration at half-maximal activity (AC50) is 10.3 µM [rising, single point]. Consider `Cn1c(SCC(=O)Nc2ccc(Cl)cc2)nc(O)cc1=O`, for which the cell number change is -15.8%. For the same compound, the AC50 under setting [2] was 1.03 µM [falling, single point]. For `Cc1ccc(OCC(=O)N(Cc2ccco2)c2c(N)n(Cc3ccccc3)c(=O)[nH]c2=O)cc1C`, the cell number change was -7.77%. Further, the AC50 under setting [2] is 0.0517 µM [falling, partial curve, poor fit].

Consider `Cc1cc(C)c2nc(-c3ccccn3)cc(C(=O)NCc3cc(C)n(C)n3)c2c1`, for which the cell number change amounted to 115%. Also, under setting [1], the AC50 is 29.1 µM [rising, single point]. Turning to `CCOC(=O)c1sc2nccc(N(C)C)c2c1N=CNOC`, the half-maximal activity concentration (AC50) under setting [1] is 0.00461 µM [rising, full curve, poor fit]. In the case of `Cc1nc(N2CCCCC2)c2sc(=S)n(C)c2n1`, the concentration at half-maximal activity (AC50) under setting [2] is 1.64 µM [rising, partial curve].

On to `N=c1c2c3c(sc2nc2n1CCCCC2)CCCCC3`, for which the cell number change is -0.329%. The concentration at half-maximal activity (AC50) under setting [2] is 0.0731 µM [falling, full curve, poor fit].

On to `O=C(CNC(=O)c1ccc(Br)cc1)OCC(=O)c1ccccc1`, for which the cell number change was 24%. `O=C(NCC1CCN(c2ccc(S(=O)(=O)N3CCOCC3)cc2)CC1)c1ccc(Cl)cc1`: the AC50 was 2.59 µM [rising, partial curve] under setting [1] and 0.517 µM [rising, single point] under setting [2]. With `Cc1cccc(N(Cc2ccccc2)C(=O)c2ccccc2S(C)(=O)=O)c1`, the cell number change was -8.21%. As for `CCOC(=O)c1sc(NC(=O)CC)nc1C`, under setting [1], the AC50 is 0.58 µM [rising, single point]. Turning to `CCOc1cc(/C=N/n2c(C)nc3ccccc3c2=O)ccc1O`, the cell number change was determined as 1.21%. For the same compound, the concentration at half-maximal activity (AC50) under setting [2] was 0.411 µM [rising, full curve, poor fit]. Consider `O=C(Nc1ccc(F)cc1)c1ccc(NC(=O)C2CCCO2)cc1` (configuration not stated), for which the cell number change was found to be 24.8%. For the compound `Cc1ccc(NC(=O)N2C(=O)C3(OCCO3)c3ccccc32)cc1`, the cell number change worked out at 39.3%. Further, the AC50 under setting [1] is 32.6 µM [rising, single point]. Under setting [2], the concentration at half-maximal activity (AC50) is 6.51 µM [rising, single point]. Turning to `COc1cc2c(cc1OC)C1O[C@](CCCCN3C(=O)c4ccccc4C3=O)(C2)OC2=C1C(=O)OC1(CCCCC1)C2`, the cell number change is -12.6%. Consider `Cc1ccc(N(C)S(=O)(=O)c2cccc(C(=O)Nc3ccc(N4CCOCC4)cc3)c2)cc1`, for which the cell number change is -10%. Under setting [2], the AC50 was 0.731 µM [falling, single point]. In the case of `CC(=O)N1CCN(C(=S)Nc2cc(S(=O)(=O)N3CCOCC3)ccc2Cl)CC1`, the cell number change was 1.22%.

For `CC(=O)CC(=O)Nc1nc(C)cc(C)n1`, the cell number change was found to be 88.8%.

In the case of `COc1cc(OC)cc(C(=O)NNC(=O)C2CCCC2)c1`, the cell number change turned out to be 19.7%. Also, under setting [1], the AC50 is 0.116 µM [rising, full curve, poor fit]. For the same compound, under setting [2], the AC50 was 5.62 µM [falling, single point]. In the case of `COc1ccc2c(c1)c(=O)c(Br)c(C)n2Cc1ccccc1`, the cell number change was -22.7%. For the same compound, the concentration at half-maximal activity (AC50) under setting [1] is 0.146 µM [falling, full curve, poor fit]. Also, the half-maximal activity concentration (AC50) under setting [2] was 6.51 µM [falling, full curve].

These data come from PubChem BioAssay AID2685 (National Center for Advancing Translational Sciences (NCATS), 2010).
